Measured values taken from publication PMC8035140.
No constants are given. Whether binding was seen depends on the method and setting. In cells and extracts the contact can be indirect. Some results given as binding are weak or reduced against the parent protein; the word gives no strength. For some assays here: Sequences can lack the tags named with a protein. Each block holds one molecule with its values, some of them ahead of it.

The chains behind the UniProt entries cited, without tags or fusion partners.
UniProt Q9ULE0: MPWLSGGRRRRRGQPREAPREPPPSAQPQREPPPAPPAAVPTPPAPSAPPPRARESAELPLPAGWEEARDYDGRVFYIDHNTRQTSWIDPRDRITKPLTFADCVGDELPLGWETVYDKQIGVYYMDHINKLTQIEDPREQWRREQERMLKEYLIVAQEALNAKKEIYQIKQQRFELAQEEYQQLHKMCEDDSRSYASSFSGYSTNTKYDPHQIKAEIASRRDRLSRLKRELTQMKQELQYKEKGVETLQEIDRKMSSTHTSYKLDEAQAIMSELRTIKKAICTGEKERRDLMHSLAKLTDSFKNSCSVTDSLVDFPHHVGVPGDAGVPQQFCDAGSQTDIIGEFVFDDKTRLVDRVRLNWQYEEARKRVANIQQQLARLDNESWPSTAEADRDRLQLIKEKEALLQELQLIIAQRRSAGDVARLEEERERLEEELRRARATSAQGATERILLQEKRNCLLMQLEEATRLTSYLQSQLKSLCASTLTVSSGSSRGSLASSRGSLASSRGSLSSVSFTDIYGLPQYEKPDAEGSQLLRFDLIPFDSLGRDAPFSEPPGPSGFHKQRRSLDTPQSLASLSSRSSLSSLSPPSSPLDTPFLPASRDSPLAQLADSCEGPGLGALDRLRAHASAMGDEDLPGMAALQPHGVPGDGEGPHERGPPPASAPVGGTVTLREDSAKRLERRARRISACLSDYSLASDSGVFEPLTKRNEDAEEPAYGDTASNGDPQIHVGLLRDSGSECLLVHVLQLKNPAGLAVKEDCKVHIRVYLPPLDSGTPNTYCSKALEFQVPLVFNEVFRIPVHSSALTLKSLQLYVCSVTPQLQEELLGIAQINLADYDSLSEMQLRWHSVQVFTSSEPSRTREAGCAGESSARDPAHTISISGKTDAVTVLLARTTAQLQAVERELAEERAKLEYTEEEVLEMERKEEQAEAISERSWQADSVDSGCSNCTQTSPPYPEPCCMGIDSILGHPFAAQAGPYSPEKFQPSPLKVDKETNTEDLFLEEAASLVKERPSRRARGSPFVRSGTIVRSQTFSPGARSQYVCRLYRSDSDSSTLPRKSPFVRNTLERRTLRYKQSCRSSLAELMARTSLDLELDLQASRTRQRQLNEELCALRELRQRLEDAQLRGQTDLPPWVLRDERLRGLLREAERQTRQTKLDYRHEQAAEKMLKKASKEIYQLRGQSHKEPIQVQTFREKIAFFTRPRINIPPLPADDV

What was measured:
[1] = molecular target: T1, LATS1 transfected into A549 cells (precipitated with anti-FLAG) (UniProt O95835); test: co-IP; A549 cells, with siRNA-WBP2 (5 and 10 pmol); anti-FLAG immunoprecipitation followed by anti-WWC3 immunoblotting
T1 sequence: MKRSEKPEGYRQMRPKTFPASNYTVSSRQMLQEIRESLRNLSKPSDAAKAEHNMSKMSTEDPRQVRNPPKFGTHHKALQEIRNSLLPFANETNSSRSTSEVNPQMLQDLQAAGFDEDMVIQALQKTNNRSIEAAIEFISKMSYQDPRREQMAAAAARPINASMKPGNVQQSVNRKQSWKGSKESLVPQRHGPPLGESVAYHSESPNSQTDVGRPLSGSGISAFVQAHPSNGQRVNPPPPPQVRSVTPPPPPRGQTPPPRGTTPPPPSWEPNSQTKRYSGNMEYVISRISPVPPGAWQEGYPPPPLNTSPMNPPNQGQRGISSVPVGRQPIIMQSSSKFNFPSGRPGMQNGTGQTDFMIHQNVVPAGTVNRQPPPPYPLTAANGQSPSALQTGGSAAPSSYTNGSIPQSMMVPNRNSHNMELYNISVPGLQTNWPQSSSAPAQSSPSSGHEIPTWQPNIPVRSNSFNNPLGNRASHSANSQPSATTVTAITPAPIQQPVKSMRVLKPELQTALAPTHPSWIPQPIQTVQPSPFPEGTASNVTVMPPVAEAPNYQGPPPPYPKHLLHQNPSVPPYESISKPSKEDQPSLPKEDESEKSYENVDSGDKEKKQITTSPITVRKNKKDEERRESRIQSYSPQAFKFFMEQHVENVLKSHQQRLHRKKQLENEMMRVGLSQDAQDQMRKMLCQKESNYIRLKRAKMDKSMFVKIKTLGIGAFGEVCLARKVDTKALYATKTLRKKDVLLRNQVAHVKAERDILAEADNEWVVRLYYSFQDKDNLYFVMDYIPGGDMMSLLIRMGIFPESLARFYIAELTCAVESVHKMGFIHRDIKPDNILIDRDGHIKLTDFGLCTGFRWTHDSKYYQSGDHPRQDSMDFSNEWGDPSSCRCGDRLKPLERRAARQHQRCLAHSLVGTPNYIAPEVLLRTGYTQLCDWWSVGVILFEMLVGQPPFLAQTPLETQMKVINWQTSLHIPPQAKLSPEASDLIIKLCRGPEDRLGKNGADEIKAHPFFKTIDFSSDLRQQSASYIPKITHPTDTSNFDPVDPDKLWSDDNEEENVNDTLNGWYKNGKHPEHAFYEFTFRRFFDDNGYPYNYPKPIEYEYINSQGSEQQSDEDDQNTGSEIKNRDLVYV

[2] = molecular target: GFP-WWC3 (WW and C2 domain-containing protein-3), wild type (UniProt Q9ULE0); test: co-IP; H1299 cells transfected, lysed after 48 h; GFP monoclonal antibody for precipitation, western blot; also with WBP2 plasmid (1 and 2.5 ug) in a dose gradient or siRNA-LATS1
[3] = molecular target: GST-WWC3 (WWC3 protein coupled to a GST label) (UniProt Q9ULE0); test: pull-down; purified GST-WWC3 on glutathione sepharose beads incubated with lysate of H1299 cells transfected with Myc-WBP2, 4 C; western blot and Coomassie staining; only the target purified
[4] = molecular target: WWC3, endogenous in A549 (human (endogenous in A549)) (UniProt Q9ULE0); test: co-IP; A549 cells, with increasing LATS1 transfected; precipitating antibody not stated

B2: Myc-WBP2, wild type (protein, UniProt Q969T9 1-261)
chain: MALNKNHSEGGGVIVNNTESILMSYDHVELTFNDMKNVPEAFKGTKKGTVYLTPYRVIFLSKGKDAMQSFMMPFYLMKDCEIKQPVFGANYIKGTVKAEAGGGWEGSASYKLTFTAGGAIEFGQRMLQVASQASRGEVPSGAYGYSYMPSGAYVYPPPVANGMYPCPPGYPYPPPPPEFYPGPPMMDGAMGYVQPPPPPYPGPMEPPVSGPDVPSTPAAEAKAAEAAASAYYNPGNPHNVYMPTSQPPPPPYYPPEDKKTQ
binding [3]: binds | binding [2]: binds

B3: WBP2, endogenous in A549 (protein, UniProt Q969T9 1-261)
chain: B2 chain
binding [4]: binds

Next, values leading:

binding [1]: binds
Molecule: WWC3, endogenous in A549 (from UniProt Q9ULE0 1-1216)

binding [2]: binds
B1: WW domain binding protein-2 (WBP2), endogenous in H1299 (protein, UniProt Q969T9 1-261)
chain: B2 chain
